Assay results: patent US9399666B2, “Inhibiting interaction between the HIF-1ALPHA and p300/CBP with hydrogen bond surrogate-based helices” (New York University, priority 2008, dated 2016)
These are yes or no findings as the source states them, for the method shown. Some entries that bind do so weakly or less than the wild type.

Chains of the proteins cited; added tags and fusions are not shown. Residues count along the entry.
UniProt Q09472, residues 323-423: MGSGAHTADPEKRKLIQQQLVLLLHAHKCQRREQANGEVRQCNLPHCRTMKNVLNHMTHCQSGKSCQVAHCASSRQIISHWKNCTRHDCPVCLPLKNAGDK

Biological target: T1, p300 (UniProt Q09472 323-423, limits assumed)
T1 construct: also called p300/CBP
Assay: isothermal titration calorimetry

Row | binding | Binder
1 | binds | TAYDCEVNA (N-terminal acetyl (Ac); C-terminal amide (NH2)) [peptide 24 (Ac…-NH2)]
2 | binds | TSYDCEVNA (N-terminal acetyl (Ac); C-terminal amide (NH2)) [peptide 23 (Ac…-NH2)]
